Results from the supplement of paper PMC10849652.
The list shows a part of the results.

Sequences of proteins named here, by UniProt entry; tags and fusion partners are left off. A change or cut given only in a name is not applied to a line headed by its entry.
UniProt P02042: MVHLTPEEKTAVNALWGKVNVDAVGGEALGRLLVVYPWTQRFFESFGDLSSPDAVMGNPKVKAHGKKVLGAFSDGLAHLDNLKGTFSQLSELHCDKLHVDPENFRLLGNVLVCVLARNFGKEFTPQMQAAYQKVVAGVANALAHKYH
UniProt Q9UJ83: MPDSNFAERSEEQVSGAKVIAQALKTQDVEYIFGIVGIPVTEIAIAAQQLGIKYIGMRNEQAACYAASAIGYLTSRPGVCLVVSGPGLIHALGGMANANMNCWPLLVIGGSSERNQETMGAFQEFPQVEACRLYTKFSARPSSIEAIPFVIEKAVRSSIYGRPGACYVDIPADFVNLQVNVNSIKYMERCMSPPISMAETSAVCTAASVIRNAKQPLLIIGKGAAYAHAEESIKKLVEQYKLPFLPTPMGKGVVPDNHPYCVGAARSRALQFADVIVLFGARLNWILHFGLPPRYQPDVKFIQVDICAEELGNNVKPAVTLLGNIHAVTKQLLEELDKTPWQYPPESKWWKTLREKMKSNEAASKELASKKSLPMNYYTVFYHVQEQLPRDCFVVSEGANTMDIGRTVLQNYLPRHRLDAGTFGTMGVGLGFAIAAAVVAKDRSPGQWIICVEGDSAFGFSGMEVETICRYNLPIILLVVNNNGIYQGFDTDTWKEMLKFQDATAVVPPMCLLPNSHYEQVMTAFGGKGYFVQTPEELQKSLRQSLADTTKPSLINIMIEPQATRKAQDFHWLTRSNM
UniProt P15170, whole entry, looked up: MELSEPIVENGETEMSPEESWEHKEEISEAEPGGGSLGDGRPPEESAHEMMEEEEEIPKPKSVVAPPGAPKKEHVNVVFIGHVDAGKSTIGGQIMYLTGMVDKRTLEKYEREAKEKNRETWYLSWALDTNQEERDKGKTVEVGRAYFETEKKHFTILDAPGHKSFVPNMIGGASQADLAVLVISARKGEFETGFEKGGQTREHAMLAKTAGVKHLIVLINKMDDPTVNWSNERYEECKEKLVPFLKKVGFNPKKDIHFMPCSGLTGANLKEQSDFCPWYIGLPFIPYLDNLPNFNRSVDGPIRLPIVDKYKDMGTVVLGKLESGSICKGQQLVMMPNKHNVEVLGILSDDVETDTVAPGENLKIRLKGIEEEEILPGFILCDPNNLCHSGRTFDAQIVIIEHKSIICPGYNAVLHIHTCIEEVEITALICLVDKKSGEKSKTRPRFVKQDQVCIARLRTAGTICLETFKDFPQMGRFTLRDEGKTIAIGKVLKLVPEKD
UniProt Q8N4P3, whole entry, looked up: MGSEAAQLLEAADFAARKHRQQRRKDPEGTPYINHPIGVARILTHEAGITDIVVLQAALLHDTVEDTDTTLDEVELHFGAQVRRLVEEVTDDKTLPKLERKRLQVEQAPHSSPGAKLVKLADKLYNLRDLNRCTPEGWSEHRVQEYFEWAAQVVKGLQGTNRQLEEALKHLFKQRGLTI
UniProt Q9BXL5: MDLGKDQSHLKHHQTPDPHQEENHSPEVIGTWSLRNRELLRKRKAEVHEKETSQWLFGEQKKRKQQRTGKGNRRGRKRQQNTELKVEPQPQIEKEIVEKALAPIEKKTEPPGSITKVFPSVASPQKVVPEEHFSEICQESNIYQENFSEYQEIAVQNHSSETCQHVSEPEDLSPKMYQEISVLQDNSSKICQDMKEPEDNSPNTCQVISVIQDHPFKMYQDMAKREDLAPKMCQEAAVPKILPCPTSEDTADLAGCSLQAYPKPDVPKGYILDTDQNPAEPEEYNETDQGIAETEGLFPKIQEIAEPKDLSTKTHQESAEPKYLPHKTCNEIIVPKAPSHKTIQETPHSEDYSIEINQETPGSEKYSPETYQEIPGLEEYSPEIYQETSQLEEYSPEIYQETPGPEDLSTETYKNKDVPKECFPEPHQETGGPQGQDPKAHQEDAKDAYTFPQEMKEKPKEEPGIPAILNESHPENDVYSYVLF
UniProt Q8WW33: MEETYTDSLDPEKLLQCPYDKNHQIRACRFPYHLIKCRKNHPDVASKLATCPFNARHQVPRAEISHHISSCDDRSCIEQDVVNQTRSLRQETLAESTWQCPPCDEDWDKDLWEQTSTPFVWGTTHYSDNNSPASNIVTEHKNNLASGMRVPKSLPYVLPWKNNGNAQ
UniProt O00165, whole entry, looked up: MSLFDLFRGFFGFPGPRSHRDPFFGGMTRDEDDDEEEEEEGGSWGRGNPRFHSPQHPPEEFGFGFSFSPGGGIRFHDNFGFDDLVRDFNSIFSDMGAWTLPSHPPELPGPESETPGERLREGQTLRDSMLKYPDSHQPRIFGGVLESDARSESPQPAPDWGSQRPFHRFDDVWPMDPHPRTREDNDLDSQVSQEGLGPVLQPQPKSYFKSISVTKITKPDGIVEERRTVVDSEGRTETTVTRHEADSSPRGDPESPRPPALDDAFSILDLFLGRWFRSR
UniProt Q9NRV9: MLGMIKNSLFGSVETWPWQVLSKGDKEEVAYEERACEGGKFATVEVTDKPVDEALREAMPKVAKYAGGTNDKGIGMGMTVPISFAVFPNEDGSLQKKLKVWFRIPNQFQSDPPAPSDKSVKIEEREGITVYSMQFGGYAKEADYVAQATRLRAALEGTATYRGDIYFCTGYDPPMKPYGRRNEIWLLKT
UniProt Q9Y5Q8: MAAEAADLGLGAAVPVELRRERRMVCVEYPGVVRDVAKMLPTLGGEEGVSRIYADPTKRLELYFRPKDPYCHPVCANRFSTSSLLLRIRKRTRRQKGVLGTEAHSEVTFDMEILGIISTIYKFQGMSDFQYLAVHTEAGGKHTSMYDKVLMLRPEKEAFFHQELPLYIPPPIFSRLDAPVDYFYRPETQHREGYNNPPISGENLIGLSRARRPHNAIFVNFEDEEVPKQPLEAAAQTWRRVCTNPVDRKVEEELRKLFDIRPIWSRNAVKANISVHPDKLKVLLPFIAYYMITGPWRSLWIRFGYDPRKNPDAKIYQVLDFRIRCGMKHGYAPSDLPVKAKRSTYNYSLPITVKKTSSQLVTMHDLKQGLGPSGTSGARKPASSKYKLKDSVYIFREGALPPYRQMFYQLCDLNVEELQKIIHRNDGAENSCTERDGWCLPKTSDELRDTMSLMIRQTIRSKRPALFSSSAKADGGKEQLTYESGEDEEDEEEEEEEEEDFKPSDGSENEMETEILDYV
UniProt P14210, whole entry, looked up: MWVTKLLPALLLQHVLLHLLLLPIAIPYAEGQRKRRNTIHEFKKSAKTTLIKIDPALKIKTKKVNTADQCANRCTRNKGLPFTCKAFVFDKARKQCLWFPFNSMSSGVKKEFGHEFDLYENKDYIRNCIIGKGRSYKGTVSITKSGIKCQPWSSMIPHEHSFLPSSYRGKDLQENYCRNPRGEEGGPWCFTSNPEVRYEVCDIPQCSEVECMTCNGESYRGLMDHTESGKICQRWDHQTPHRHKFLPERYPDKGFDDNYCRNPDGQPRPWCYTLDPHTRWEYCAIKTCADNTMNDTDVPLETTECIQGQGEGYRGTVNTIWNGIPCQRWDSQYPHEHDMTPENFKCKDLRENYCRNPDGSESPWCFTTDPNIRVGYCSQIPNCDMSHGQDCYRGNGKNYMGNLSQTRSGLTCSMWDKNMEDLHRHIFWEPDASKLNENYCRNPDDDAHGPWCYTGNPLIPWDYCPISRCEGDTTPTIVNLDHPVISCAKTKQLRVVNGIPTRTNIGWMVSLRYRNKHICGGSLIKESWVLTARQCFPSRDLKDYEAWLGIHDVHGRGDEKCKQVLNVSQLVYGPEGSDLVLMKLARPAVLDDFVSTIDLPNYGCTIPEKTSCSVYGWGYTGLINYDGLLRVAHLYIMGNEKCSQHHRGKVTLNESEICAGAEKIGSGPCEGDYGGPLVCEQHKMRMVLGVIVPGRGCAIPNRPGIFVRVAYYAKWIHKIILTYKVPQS
UniProt P42694: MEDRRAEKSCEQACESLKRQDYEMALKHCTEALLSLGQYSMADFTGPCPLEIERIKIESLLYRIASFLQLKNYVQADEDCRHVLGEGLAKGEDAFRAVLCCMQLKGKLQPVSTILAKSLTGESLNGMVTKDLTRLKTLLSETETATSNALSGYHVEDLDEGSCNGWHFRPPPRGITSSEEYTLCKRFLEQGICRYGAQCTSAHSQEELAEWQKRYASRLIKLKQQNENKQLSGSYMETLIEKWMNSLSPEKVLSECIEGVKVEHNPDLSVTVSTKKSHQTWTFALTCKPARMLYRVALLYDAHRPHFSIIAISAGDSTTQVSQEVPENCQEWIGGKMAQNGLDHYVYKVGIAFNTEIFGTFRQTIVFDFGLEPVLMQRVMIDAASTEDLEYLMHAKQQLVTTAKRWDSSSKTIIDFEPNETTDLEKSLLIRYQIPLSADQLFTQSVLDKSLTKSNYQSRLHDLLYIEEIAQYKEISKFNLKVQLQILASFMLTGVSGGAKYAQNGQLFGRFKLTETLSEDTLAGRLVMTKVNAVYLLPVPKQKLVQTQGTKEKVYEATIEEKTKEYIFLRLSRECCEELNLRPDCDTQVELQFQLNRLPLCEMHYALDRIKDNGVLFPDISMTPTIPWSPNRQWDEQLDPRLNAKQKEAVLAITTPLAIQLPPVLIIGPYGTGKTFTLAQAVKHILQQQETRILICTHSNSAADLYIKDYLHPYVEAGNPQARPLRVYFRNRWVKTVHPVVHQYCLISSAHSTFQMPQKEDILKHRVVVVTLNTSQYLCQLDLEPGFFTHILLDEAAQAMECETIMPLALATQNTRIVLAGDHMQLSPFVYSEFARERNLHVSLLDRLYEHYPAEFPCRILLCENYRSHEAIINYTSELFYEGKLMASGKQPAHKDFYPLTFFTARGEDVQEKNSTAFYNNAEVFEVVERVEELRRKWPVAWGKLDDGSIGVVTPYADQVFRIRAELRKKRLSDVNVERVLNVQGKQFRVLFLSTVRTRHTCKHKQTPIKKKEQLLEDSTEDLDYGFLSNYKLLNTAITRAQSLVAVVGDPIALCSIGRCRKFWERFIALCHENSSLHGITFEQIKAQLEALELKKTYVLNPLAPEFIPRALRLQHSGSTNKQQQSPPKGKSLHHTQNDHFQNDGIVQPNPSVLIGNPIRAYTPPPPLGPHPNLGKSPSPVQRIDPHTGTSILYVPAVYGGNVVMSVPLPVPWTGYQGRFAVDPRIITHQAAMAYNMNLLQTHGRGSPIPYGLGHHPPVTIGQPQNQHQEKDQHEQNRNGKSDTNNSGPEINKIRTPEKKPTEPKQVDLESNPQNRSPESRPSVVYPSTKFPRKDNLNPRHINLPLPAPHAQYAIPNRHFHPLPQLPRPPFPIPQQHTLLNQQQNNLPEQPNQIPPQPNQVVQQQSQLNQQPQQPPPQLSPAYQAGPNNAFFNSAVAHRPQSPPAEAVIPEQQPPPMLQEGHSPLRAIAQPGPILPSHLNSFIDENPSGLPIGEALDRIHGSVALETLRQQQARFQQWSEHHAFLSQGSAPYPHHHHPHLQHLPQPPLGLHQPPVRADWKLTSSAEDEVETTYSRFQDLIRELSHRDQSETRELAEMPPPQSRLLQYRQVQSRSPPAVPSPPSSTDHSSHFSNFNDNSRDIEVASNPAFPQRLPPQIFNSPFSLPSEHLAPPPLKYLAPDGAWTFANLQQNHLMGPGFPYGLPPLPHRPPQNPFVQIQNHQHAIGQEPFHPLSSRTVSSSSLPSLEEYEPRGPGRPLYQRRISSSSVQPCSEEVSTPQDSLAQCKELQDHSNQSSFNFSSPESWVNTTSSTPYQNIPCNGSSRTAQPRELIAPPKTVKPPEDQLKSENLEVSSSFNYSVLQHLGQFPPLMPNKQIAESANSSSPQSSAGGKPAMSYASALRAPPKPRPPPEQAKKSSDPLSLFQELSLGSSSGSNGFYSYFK
UniProt O95479: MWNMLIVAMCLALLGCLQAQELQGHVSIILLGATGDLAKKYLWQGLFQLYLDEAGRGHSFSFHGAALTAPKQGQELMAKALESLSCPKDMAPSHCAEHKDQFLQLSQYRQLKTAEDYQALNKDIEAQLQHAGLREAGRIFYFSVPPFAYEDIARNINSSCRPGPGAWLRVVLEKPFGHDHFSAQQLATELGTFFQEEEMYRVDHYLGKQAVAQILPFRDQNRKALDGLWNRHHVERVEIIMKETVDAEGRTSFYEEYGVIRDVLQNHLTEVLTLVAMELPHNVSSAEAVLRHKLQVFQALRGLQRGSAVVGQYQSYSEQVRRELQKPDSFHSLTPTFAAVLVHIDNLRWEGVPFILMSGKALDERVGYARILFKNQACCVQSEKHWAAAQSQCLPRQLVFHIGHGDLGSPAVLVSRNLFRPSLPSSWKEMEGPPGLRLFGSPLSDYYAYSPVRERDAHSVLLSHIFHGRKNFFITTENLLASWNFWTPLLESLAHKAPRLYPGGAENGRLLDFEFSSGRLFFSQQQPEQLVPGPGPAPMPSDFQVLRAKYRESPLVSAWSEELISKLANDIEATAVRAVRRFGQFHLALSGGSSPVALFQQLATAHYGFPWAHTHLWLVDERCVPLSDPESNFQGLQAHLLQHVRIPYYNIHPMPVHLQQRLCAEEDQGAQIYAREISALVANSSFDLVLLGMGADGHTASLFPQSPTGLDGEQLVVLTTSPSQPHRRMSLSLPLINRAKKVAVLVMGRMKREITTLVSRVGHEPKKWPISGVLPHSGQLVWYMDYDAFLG

What was measured:
Assay in all cases: log2 fold change, soluble protein after heating vs DMSO (PISA); higher = thermal stabilisation; K562 cells, 10 uM, 30 min; active = over 0.2 and 3.5 SD of the protein, either way, in both replicates (recomputed)
saracatinib = compound: CN1CCN(CCOc2cc(OC3CCOCC3)c3c(Nc4c(Cl)ccc5c4OCO5)ncnc3c2)CC1 [saracatinib]
How it was run: (§1)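 Quantification of soluble protein used TMTpro 16plex LC-MS/MS, with channel sums equalised. Samples were the supernatant after 21,000xg for 90 min of pooled aliquots from K562 cells (2×10^6 cells/mL) treated with 10 μM compound for 30 min, heated for 3 min over 48°C-58°C, and extracted in PBS with 0.5% NP-40 at 4°C. Values, from duplicates, describe thermal stability against control samples on a log2 fold-change scale.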

sotrastaurin = compound: CN1CCN(c2nc(C3=C(c4c[nH]c5ccccc45)C(=O)NC3=O)c3ccccc3n2)CC1 [sotrastaurin]
How it was run: as §1

alvocidib = compound: CN1CC[C@H](c2c(O)cc(O)c3c(=O)cc(-c4ccccc4Cl)oc23)[C@H](O)C1 [alvocidib]
How it was run: as §1

Tubastatin A = compound: CN1CCc2c(c3ccccc3n2Cc2ccc(C(=O)NO)cc2)C1 [Tubastatin A]
How it was run: as §1

[1] = compound: CNC(=O)C1=CC=CC=C1NC2=NC(=NC=C2Cl)NC3=C(C=C(C=C3)N4CCOCC4)OC
How it was run: as §1

defactinib = compound: CNC(=O)c1ccc(Nc2ncc(C(F)(F)F)c(NCc3nccnc3N(C)S(C)(=O)=O)n2)cc1 [defactinib]
How it was run: as §1

rucaparib = compound: CNCc1ccc(-c2[nH]c3cc(F)cc4c3c2CCNC4=O)cc1 [rucaparib]
How it was run: as §1

[2] = compound: CNc1nc(-c2ccc3c(N)n[nH]c3c2)cc(N2C[C@@H](C(=O)NC3CCCCC3)CC[C@H]2C)n1
How it was run: as §1

encorafenib = compound: COC(=O)N[C@@H](C)CNc1nccc(-c2cn(C(C)C)nc2-c2cc(Cl)cc(NS(C)(=O)=O)c2F)n1 [encorafenib]
How it was run: as §1

[3] = compound: COC(=O)[C@H](CCSC)NC(=O)C1=C(C=C(C=C1)NC[C@H](CS)N)C2=CC=CC=C2
How it was run: as §1

[4] = compound: COC1=CC=C(C=C1)CN2C=CC3=C2C=C(C=C3)C(=O)NO
How it was run: as §1

filanesib = compound: CON(C)C(=O)N1N=C(c2cc(F)ccc2F)S[C@@]1(CCCN)c1ccccc1 [filanesib]
How it was run: as §1

zotarolimus = compound: CO[C@H]1C[C@@H]2CC[C@@H](C)[C@@](O)(O2)C(=O)C(=O)N2CCCC[C@H]2C(=O)O[C@H]([C@H](C)C[C@@H]2CC[C@H](n3cnnn3)[C@H](OC)C2)CC(=O)[C@H](C)/C=C(\C)[C@@H](O)[C@@H](OC)C(=O)[C@H](C)C[C@H](C)/C=C/C=C/C=C/1C [zotarolimus]
How it was run: as §1

idasanutlin = compound: COc1cc(C(=O)O)ccc1NC(=O)[C@@H]1N[C@@H](CC(C)(C)C)[C@](C#N)(c2ccc(Cl)cc2F)[C@H]1c1cccc(Cl)c1F [idasanutlin]
How it was run: as §1

alisertib = compound: COc1cc(Nc2ncc3c(n2)-c2ccc(Cl)cc2C(c2c(F)cccc2OC)=NC3)ccc1C(=O)O [alisertib]
How it was run: as §1

[5] = compound: COc1cc2nc(-c3cc(F)ccc3O)nc(N[C@@H]3CNC[C@H]3C(C)(C)O)c2cc1OC
How it was run: as §1

gefitinib = compound: COc1cc2ncnc(Nc3ccc(F)c(Cl)c3)c2cc1OCCCN1CCOCC1 [gefitinib]
How it was run: as §1

[6] = compound: COc1cccc2cc(-c3nc([C@H]4CC[C@H](C(=O)O)CC4)n4ncnc(N)c34)[nH]c12
How it was run: as §1

lapatinib = compound: CS(=O)(=O)CCNCc1ccc(-c2ccc3ncnc(Nc4ccc(OCc5cccc(F)c5)c(Cl)c4)c3c2)o1 [lapatinib]
How it was run: as §1

pictilisib = compound: CS(=O)(=O)N1CCN(Cc2cc3nc(-c4cccc5[nH]ncc45)nc(N4CCOCC4)c3s2)CC1 [pictilisib]
How it was run: as §1

Measured: log2 fold change

GSTZ1 (UniProt G3V4T6)
inactive: saracatinib 0.175 | sotrastaurin 0.094 | alvocidib 0.018 | Tubastatin A 0.018 | [1] 0.026 | defactinib -0.034 | rucaparib -0.058 | [2] 0.101 | encorafenib -0.037 | [3] 0.003 | [4] -0.078 | filanesib -0.037 | zotarolimus -0.027 | idasanutlin -0.061 | alisertib 0.048 | [5] -0.01 | gefitinib -0.066 | [6] 0.109 | lapatinib -0.019 | pictilisib 0.079

HBD (UniProt P02042)
inactive: saracatinib 0.06 | sotrastaurin 0.068 | alvocidib -0.054 | Tubastatin A -0.008 | [1] -0.017 | defactinib 0.007 | rucaparib 0.016 | [2] 0.002 | encorafenib -0.07 | [3] 0.005 | [4] 0.004 | filanesib 0.046 | zotarolimus -0.04 | idasanutlin -0.066 | alisertib -0.044 | [5] -0.146 | gefitinib 0.015 | [6] 0.07 | lapatinib 0.164 | pictilisib 0.175

HACL1 (UniProt Q9UJ83)
inactive: saracatinib 0.053 | sotrastaurin -0.009 | alvocidib 0.025 | Tubastatin A -0.009 | [1] -0.015 | defactinib 0.013 | rucaparib -0.024 | [2] -0.001 | encorafenib 0.002 | [3] 0.007 | [4] -0.003 | filanesib -0.085 | zotarolimus 0.075 | idasanutlin -0.038 | alisertib -0.016 | [5] -0.028 | gefitinib 0.031 | [6] 0.069 | lapatinib 0.005 | pictilisib -0.008

GSPT1 isoform 3 (UniProt P15170)
inactive: saracatinib 0.004 | sotrastaurin 0.033 | alvocidib -0.04 | Tubastatin A 0 | [1] 0.105 | defactinib 0.025 | rucaparib -0.055 | [2] -0.001 | encorafenib -0.025 | [3] -0.013 | [4] -0.02 | filanesib -0.069 | zotarolimus 0.004 | idasanutlin -0.085 | alisertib -0.032 | [5] 0.032 | gefitinib -0.012 | [6] 0.019 | lapatinib -0.021 | pictilisib 0.077

HDDC3 (UniProt Q8N4P3)
inactive: saracatinib 0.008 | sotrastaurin 0.107 | alvocidib -0.014 | Tubastatin A -0.057 | [1] -0.025 | defactinib 0.012 | rucaparib -0.021 | [2] -0.044 | encorafenib -0.039 | [3] 0.035 | [4] -0.138 | filanesib -0.004 | zotarolimus -0.032 | idasanutlin 0.037 | alisertib -0.072 | [5] -0.021 | gefitinib -0.001 | [6] 0.054 | lapatinib -0.066 | pictilisib 0.026

HELB (UniProt Q8NG08)
inactive: saracatinib 0.028 | sotrastaurin 0.042 | alvocidib -0.034 | Tubastatin A 0.011 | [1] 0.111 | defactinib 0.006 | rucaparib -0.13 | [2] -0.052 | encorafenib 0.014 | [3] -0.052 | [4] -0.054 | filanesib -0.042 | zotarolimus 0.031 | idasanutlin -0.029 | alisertib -0.046 | [5] -0.004 | gefitinib 0.02 | [6] -0.016 | lapatinib 0.091 | pictilisib 0.146

HDHD5 (UniProt Q9BXW7)
inactive: saracatinib -0.041 | sotrastaurin -0.034 | alvocidib -0.157 | Tubastatin A -0.01 | [1] 0.065 | defactinib -0.071 | rucaparib 0.036 | [2] -0.074 | encorafenib -0.024 | [3] -0.087 | [4] -0.038 | filanesib -0.109 | zotarolimus -0.032 | idasanutlin -0.09 | alisertib -0.034 | [5] -0.042 | gefitinib -0.061 | [6] 0.115 | lapatinib 0.167 | pictilisib -0.006

HEMGN (UniProt Q9BXL5)
inactive: saracatinib 0 | sotrastaurin 0.071 | alvocidib 0.043 | Tubastatin A -0.005 | [1] -0.009 | defactinib 0.03 | rucaparib -0.019 | [2] -0.007 | encorafenib -0.018 | [3] 0.026 | [4] -0.053 | filanesib 0.029 | zotarolimus -0.012 | idasanutlin 0.003 | alisertib -0.015 | [5] 0.005 | gefitinib 0.001 | [6] 0.005 | lapatinib -0.021 | pictilisib 0.013

GTSF1 (UniProt Q8WW33)
inactive: saracatinib 0.046 | sotrastaurin 0.044 | alvocidib -0.032 | Tubastatin A -0.037 | [1] 0.031 | defactinib -0.005 | rucaparib -0.032 | [2] -0.033 | encorafenib 0.002 | [3] 0.03 | [4] 0.022 | filanesib -0.045 | zotarolimus 0.013 | idasanutlin 0.022 | alisertib -0.053 | [5] -0.034 | gefitinib -0.011 | [6] 0 | lapatinib 0.018 | pictilisib 0.017

HAX1 (UniProt O00165)
inactive: saracatinib -0.067 | sotrastaurin -0.106 | Tubastatin A 0.015 | [1] -0.14 | defactinib -0.008 | rucaparib 0.082 | [2] 0.051 | encorafenib 0.045 | [3] -0.013 | [4] -0.056 | filanesib 0.017 | zotarolimus 0.004 | idasanutlin 0.04 | alisertib -0.007 | [5] -0.311 | gefitinib -0.041 | [6] -0.014 | lapatinib -0.015 | pictilisib -0.145

HEBP1 (UniProt Q9NRV9)
inactive: saracatinib -0.029 | sotrastaurin -0.104 | alvocidib -0.022 | Tubastatin A -0.035 | [1] 0.294 | defactinib 0.01 | rucaparib 0 | [2] 0.141 | encorafenib -0.199 | [3] -0.011 | [4] -0.068 | filanesib -0.153 | zotarolimus 0.016 | idasanutlin -0.021 | alisertib -0.139 | [5] 0.046 | gefitinib 0.027 | [6] -0.008 | lapatinib 0.28 | pictilisib 0.333

GTF3C5 isoform 3 (UniProt Q9Y5Q8)
inactive: saracatinib 0.024 | sotrastaurin -0.148 | Tubastatin A 0.068 | [1] -0.02 | defactinib -0.069 | rucaparib -0.173 | [2] 0.056 | encorafenib 0.085 | [3] -0.021 | [4] -0.115 | filanesib -0.039 | zotarolimus 0.116 | idasanutlin -0.068 | alisertib 0.064 | [5] 0.024 | gefitinib -0.003 | [6] -0.034 | lapatinib 0.13 | pictilisib -0.148

HGF (UniProt P14210)
inactive: saracatinib 0.342 | sotrastaurin 0.127 | alvocidib 0.045 | Tubastatin A -0.15 | rucaparib -0.129 | [2] 0.041 | encorafenib 0.011 | filanesib 0.032 | zotarolimus -0.138 | alisertib 0.031 | gefitinib 0.065 | [6] 0.186

H2AZ1 (UniProt P0C0S5)
inactive: saracatinib -0.082 | sotrastaurin 0.067 | Tubastatin A -0.017 | [1] -0.102 | defactinib 0.259 | rucaparib 0.396 | [2] -0.014 | encorafenib 0.107 | [3] 0.105 | [4] 0.05 | filanesib 0.353 | zotarolimus -0.113 | idasanutlin 0.266 | alisertib 0.039 | [5] -0.046 | gefitinib 0.121 | [6] -0.161 | lapatinib 0 | pictilisib -0.09

GTPBP4 (UniProt Q9BZE4)
inactive: saracatinib -0.135 | sotrastaurin -0.042 | alvocidib 0.273 | Tubastatin A 0.018 | defactinib 0.01 | rucaparib 0.357 | [2] -0.01 | encorafenib 0.208 | [3] 0.064 | filanesib 0.245 | zotarolimus 0.238 | idasanutlin 0.628 | alisertib 0.076 | gefitinib 0.091 | [6] -0.421 | pictilisib 0.047

Taken from above (4 entries):
HEBP1 (UniProt Q9NRV9)
inactive: saracatinib -0.029 | sotrastaurin -0.104 | alvocidib -0.022 | Tubastatin A -0.035 | [1] 0.294 | defactinib 0.01 | rucaparib 0 | [2] 0.141 | encorafenib -0.199 | [3] -0.011 | [4] -0.068 | filanesib -0.153 | zotarolimus 0.016 | idasanutlin -0.021 | alisertib -0.139 | [5] 0.046 | gefitinib 0.027 | [6] -0.008 | lapatinib 0.28 | pictilisib 0.333

GTF3C5 isoform 3 (UniProt Q9Y5Q8)
inactive: saracatinib 0.024 | sotrastaurin -0.148 | Tubastatin A 0.068 | [1] -0.02 | defactinib -0.069 | rucaparib -0.173 | [2] 0.056 | encorafenib 0.085 | [3] -0.021 | [4] -0.115 | filanesib -0.039 | zotarolimus 0.116 | idasanutlin -0.068 | alisertib 0.064 | [5] 0.024 | gefitinib -0.003 | [6] -0.034 | lapatinib 0.13 | pictilisib -0.148

HGF (UniProt P14210)
inactive: saracatinib 0.342 | sotrastaurin 0.127 | alvocidib 0.045 | Tubastatin A -0.15 | rucaparib -0.129 | [2] 0.041 | encorafenib 0.011 | filanesib 0.032 | zotarolimus -0.138 | alisertib 0.031 | gefitinib 0.065 | [6] 0.186

H2AZ1 (UniProt P0C0S5)
inactive: saracatinib -0.082 | sotrastaurin 0.067 | Tubastatin A -0.017 | [1] -0.102 | defactinib 0.259 | rucaparib 0.396 | [2] -0.014 | encorafenib 0.107 | [3] 0.105 | [4] 0.05 | filanesib 0.353 | zotarolimus -0.113 | idasanutlin 0.266 | alisertib 0.039 | [5] -0.046 | gefitinib 0.121 | [6] -0.161 | lapatinib 0 | pictilisib -0.09

Remaining list, next part:

HELZ (UniProt P42694)
inactive: saracatinib -0.095 | sotrastaurin -0.18 | alvocidib -0.054 | [1] 0.087 | defactinib -0.161 | rucaparib 0.14 | [2] -0.017 | encorafenib 0.006 | [3] 0.136 | [4] -0.096 | filanesib 0.157 | zotarolimus -0.108 | idasanutlin -0.038 | alisertib -0.118 | [5] 0.056 | gefitinib -0.006 | [6] -0.273 | lapatinib 0.165 | pictilisib 0.098

H6PD (UniProt O95479)
inactive: saracatinib 0.042 | sotrastaurin -0.039 | alvocidib -0.006 | Tubastatin A 0.087 | [1] -0.068 | defactinib 0.25 | rucaparib -0.118 | [2] -0.165 | encorafenib -0.048 | [3] -0.058 | filanesib 0.016 | zotarolimus -0.074 | idasanutlin 0.07 | alisertib 0.136 | [5] -0.126 | gefitinib 0.014 | [6] -0.078 | lapatinib -0.082 | pictilisib 0.005
